# These are yes or no findings as the source states them, for the method shown. Binding seen in cells or lysates may run through a third protein. Some entries that bind do so weakly or less than the wild type. For some of these results: Sequences can lack the tags named with a protein.
# Protein sequences, listed by entry. Tags and fused reporters are not part of them. Residues count along the entry.
# UniProt P35222, residues 2-781: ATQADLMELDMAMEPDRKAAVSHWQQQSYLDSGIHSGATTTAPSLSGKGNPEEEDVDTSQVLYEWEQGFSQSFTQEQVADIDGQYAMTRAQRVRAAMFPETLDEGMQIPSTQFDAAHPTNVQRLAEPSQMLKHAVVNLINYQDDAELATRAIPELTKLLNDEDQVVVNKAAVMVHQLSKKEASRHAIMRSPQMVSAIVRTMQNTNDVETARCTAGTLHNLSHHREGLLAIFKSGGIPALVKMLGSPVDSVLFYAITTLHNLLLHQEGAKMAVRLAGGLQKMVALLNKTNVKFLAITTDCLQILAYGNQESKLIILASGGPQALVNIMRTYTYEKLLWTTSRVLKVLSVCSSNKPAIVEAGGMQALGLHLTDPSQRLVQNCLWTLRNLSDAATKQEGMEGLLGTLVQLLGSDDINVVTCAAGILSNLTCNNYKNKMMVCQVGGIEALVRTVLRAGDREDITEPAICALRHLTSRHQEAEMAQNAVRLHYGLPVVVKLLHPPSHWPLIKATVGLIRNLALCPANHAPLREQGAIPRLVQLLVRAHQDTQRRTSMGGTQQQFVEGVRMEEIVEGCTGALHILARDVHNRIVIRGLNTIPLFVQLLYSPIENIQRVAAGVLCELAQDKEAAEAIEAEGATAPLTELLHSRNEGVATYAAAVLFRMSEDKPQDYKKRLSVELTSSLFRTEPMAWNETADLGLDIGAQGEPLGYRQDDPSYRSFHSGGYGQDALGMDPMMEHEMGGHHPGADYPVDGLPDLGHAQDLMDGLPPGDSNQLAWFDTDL
# UniProt Q02248, residues 2-781: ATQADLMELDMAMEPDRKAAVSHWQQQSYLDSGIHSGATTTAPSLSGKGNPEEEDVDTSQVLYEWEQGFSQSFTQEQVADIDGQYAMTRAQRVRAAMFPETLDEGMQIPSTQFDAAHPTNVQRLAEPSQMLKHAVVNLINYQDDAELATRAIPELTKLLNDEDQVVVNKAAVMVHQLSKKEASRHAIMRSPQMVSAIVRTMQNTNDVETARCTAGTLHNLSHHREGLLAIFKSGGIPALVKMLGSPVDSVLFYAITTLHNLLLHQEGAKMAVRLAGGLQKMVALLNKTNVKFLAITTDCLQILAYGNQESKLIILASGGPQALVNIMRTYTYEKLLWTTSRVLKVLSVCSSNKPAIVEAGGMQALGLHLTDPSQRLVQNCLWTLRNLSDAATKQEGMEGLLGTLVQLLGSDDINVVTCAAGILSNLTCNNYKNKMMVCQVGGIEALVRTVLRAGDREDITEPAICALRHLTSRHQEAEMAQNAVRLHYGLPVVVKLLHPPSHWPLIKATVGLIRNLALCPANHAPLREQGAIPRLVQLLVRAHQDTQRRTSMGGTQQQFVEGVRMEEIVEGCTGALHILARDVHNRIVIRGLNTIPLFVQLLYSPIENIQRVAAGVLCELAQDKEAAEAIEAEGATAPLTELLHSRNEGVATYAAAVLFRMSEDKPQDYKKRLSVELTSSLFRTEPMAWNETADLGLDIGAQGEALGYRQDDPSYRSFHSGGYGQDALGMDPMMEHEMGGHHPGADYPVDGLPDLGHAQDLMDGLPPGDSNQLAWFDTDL
# Legend:
# [1] = target: β-catenin endogenous in human cell lines (HEK-293, HCT-8/R1) (human) (UniProt P35222); test: co-immunoprecipitation with anti-β-catenin or anti-Myc 9E10, Western blot (FIG. 7C)
# [2] = target: β-catenin endogenous in human cell lines (HEK-293, HCT-8/R1) (human) (UniProt P35222); test: co-immunoprecipitation from HEK-293 lysates, Western blot
# [3] = target: β-catenin endogenous in mouse testis and heart (mouse) (UniProt Q02248); test: co-immunoprecipitation from mouse heart and testis lysates, Western blot
# [4] = target: β-catenin endogenous in mouse testis and heart (mouse) (UniProt Q02248); test: co-immunoprecipitation with serum #952 or anti-β-catenin, Western blot (FIG. 7D)
Binder,binding [1],binding [2],binding [3],binding [4]
"Myc-tagged human αT-catenin encoded by plasmid pEF6MH-ATCTN(1-2860), expressed in HEK-293 cells (protein, not shown: small tags and cut ends) MSAETPITLNIDPQDLQVQTFTVEKLLEPLIIQVTTLVNCPQNPSSRKKGRSKRASVLLASVEEATWNLLDKGEKIAQEATVLKDELTASLEEVRKESEALKVSAERFTDDPCFLPKREAVVQAARALLAAVTRLLILADMIDVMCLLQHVSAFQRTFETLKNVANKSDLQKTYQKLGKELENLDYLAFKRQQDLKSPNQRDEIAGARASLKENSPLLHSICSACLEHSDVASLKASKDTVCEEIQNALNVISNASQGIQNMTTPPEPQAATLGSALDELENLIVLNPLTVTEEEIRPSLEKRLEAIISGAALLADSSCTRDLHRERIIAECNAIRQALQDLLSEYMNNAGKKERSNTLNIALDNMCKKTRDLRRQLRKAIIDHVSDSFLDTTVPLLVLIEAAKNGREKEIKEYAAIFHEHTSRLVEVANLACSMSTNEDGIKIVKIAANHLETLCPQIINAALALAARPKSQAVKNTMEMYKRTWENHIHVLTEAVDDITSIDDFLAVSESHILEDVNKCIIALRDQDADNLDRAAGAIRGRAARVAHIVTGEMDSYEPGAYTEGVMRNVNFLTSTVIPEFVTQVNVALEALSKSSLNVLDDNQFVDISKKIYDTIHDIRCSVMMIRTPEELEDVSDLEEEHEVRSHTSIQTEGKTDRAKMTQLPEAEKEKIAEQVADFKKVKSKLDAEIEIWDDTSNDIIVLAKNMCMIMMEMTDFTRGKGPLKHTTDVIYAAKMISESGSRMDVLARQIANQCPDPSCKQDLLAYLEQIKFYSHQLKICSQVKAEIQNLGGELIMSALDSVTSLIQAAKNLMNAVVQTVKMSYIASTKIIRIQSPAGPRHPVVMWRMKAPAKKPLIKREKPEETCAAVRRGSAKKKIHPLQVMSEFRGRQIY",binds,binds,,
mouse αT-catenin (protein) MSAETPITLNMDTQDLQIQTFTVEKLLEPLIIQVTTLVNCPQNPSNRKKGRSKRARVLLASVEEATWNLLDKGEMIAKEATVLKEELAAALQEVRKESKALKVSAERFTDDPCYLPKREAVVQAARALLAAVTRLLVLADMIDVMCLLQHVSSFQRTFESLKNVSNKSDLQRTYQKLGKELESLDYLAFKRQQDLKSPSQRDEIAGARATLKENSPLLHSICSACLEHSDVASLKASKDTVCEEIQNALDVISNASQGIQNAPAPPEPQAATLGSAFDELENLIVLNPLTVTEEDVRPSLEKRLEAIISGAALLADSSCTRDLHRERIIAECNAIRQALQDLLTEYMSNTGKTERSNTLNTAIVNMSKKTRDLRRQLRKAIIDHISDSFLDTTVPLLVLIEAAKNGRVKEIKDYAAIFHEHTGRLVEVANLACSMSTNEDGIKIVRIAANHLETLCPQIINAALALASRPKSQVVKNTMEMYKRTWEHYIHVLTEAVDDITSIDDFLAVSESHILEDVNKCIIALRDQDADNLDRAAGAIRGRAARVAHIVAGEMDSYEPGAYTEGVMRNVNFLTSTVIPEFVTQVNVALDALSKNSLTALDDNQFVDISKKIYDTIHDIRCSVMMIRTPEELEDVSDLEDDHEVRSHTSIQTEGKTDRAKMTQLPEAEKEKIAEQVADFKKVKSKLDAEIEIWDDTSNDIIVLAKKMCMIMMEMTDFTRGKGPLKHTTDVIYAAKMISESGSRMDVLARQIANQCPDPPCKQDLLAYLEQIKFYSHQLKICSQVKAEIQNLGGELIVSALDSVTSLIQAAKNLMNAVVQTVKMSYIASTKIIRIQSSAGPRHPVVMWRMKAPAKKPLIKREKPEETWAAARRGSAKKKIHPVQVMSEFRGRQVY,,,binds,binds

# Source: patent US20030165506A1
